# Literature values, collected in patent US11229667B2, “Magnesium/lithium preparations for neuroprotection and neurotrophic benefits” (FP Nutraceuticals, LLC, priority 2018, dated 2022).
# At least one compound was matched to its structure with a doubt left.
# System: neurons
# Conditions: glutamate-induced excitotoxicity
smiles,measurement,setting,value
[Li] [lithium],extracellular concentration with nearly complete protection,,1.0 mM
same,extracellular concentration at which protective effects are significant,decreased NR2B subunit tyrosine phosphorylation,0.1 to 0.2 mM
